# Assay results: paper PMC11496845, “Preparation, characterization, and in vitro cytogenotoxic evaluation of a novel dimenhydrinate-β-cyclodextrin inclusion complex” (Biomolecules and Biomedicine, 2024)
# Where two headings read alike, the source gives them in different places.
# Legend:
# [1] = system: rat primary hepatocytes; conditions: cited from earlier work
# [2] = cited from earlier work
# [3] = system: PBMCs; experiment: Alkaline comet assay, tail intensity; conditions: 3 h
# Method: Blood was collected by venipuncture into heparinized vacutainers (BD Vacutainer Systems, Plymouth, UK), stored at room temperature, protected from light, and processed within 2 h. PBMCs were isolated by density gradient centrifugation (400 × g, 30 min) with separation medium (Histopaque® - 1077). After isolation, PBMCs were stained with Trypan blue and counted using a hemocytometer.
# The comet assay is a sensitive technique for measuring DNA damage at the level of the individual eukaryotic cell. It is based upon the fact that denatured cleaved DNA fragments, or damaged DNA, migrate out of the cell at a different rate during electrophoresis than undamaged DNA [32]. Damaged DNA creates a “comet tail,” while the undamaged DNA remains within the cell membrane creating the “comet head.” The Comet assay is most commonly run under alkaline conditions to detect single and double-stranded DNA breaks. […]
# Prior to the fluorescent microscope analysis (U-MNU2; Olympus BX51, Tokyo, Japan), slides were rehydrated and stained with DAPI (1 µg/mL). DNA damage in treated cells was evaluated using Comet Assay IV software (Instem LSS Ltd., Staffordshire, UK), by measuring tail intensity (TI%), the percent of DNA in the tail of comets. For each concentration, as well as for positive and negative controls, at least 200 comets were analyzed. […]
# [4] = DMH with β-CD
compound,measurement,setting,value
"CN(C)CCOC(c1ccccc1)c1ccccc1.Cn1c(=O)c2[nH]c(Cl)nc2n(C)c1=O [DMH, 2-benzhydryloxy-N,N-dimethylethanamine; 8-chloro-1,3-dimethyl-7H-purine-2,6-dione]",DNA strand breaks,[1],did not cause DNA strand breaks
same,Plasma concentration considered toxic,[2],600 ng/mL
same,Plasma concentration,[2]; dose of 25 mg,14.5 ng/mL
same,Peak plasma concentration (Cmax),[2]; oral administration of 50 mg,72.6 ng/mL
same,Genotoxic effects in alkaline comet assay,[3],did not show genotoxic effects
same,"Ks, stability constant",[4],171.10 M⁻¹
same,"Ks, stability constant",[4]; Equation (1),171.10 M∘1
